Test results from PubChem BioAssay AID1671190 (National Center for Advancing Translational Sciences (NCATS), 2021).
Out of some 580,000 compounds screened, about 6,100 (1.1%) were called active. The inconclusive results got no clear call from the source; some entries with a clear call stand among them for comparison. Calls come from the whole dose curve; as a rule, active = well fitted inhibition curve with a large enough effect; inconclusive = small, poorly fitted or top-dose-only effect, or another doubt; inactive = no such curve, though single readings can be large or run the other way. Potencies of inconclusive entries are doubtful fits and often do not repeat.
Potency is the fitted concentration of half-maximal effect.

By UniProt entry, the sequences of proteins in these tests, tags left out. Where a name states a change or a piece, a line headed by the entry shows the natural chain unless it says otherwise.
UniProt P18054: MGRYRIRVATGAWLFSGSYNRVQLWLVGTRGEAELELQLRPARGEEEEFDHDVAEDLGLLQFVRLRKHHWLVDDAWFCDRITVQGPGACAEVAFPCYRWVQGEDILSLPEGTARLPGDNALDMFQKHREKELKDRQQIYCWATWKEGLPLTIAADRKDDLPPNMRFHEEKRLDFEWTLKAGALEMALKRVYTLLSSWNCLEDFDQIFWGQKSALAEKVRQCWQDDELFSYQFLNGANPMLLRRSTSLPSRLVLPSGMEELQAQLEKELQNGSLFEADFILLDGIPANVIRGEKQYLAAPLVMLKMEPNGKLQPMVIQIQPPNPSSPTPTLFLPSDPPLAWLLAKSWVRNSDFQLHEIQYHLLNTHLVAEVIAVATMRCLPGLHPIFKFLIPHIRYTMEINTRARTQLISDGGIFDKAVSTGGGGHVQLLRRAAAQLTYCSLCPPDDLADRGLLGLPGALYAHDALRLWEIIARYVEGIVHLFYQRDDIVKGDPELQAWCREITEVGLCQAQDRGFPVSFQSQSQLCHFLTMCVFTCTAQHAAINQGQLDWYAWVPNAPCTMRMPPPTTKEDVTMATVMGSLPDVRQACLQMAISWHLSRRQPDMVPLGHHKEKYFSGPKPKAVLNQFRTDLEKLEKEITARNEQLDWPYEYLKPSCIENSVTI

What follows are molecules tested against Polyunsaturated fatty acid lipoxygenase ALOX12 (Homo sapiens) (UniProt P18054) (assay: Primary qHTS assay for inhibitors of human arachidonate 12S-lipoxygenase (ALOX12): Round 2). Settings: purified 12hLO, xylenol orange hydroperoxide absorbance; series mostly up to 108 µM.
Method in brief: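 Purified human 12hLO (150 nM final) in 25 mM Hepes, 0.01% Triton X-100, pH 7.0 was preincubated 15 min at room temperature with compound. Then 40 uM arachidonic acid was added, 30 min. Hydroperoxide was read by Fe-XO absorbance ratio 573/405 nm.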
For `CN(C)/C=N/c1sc2c(c1C#N)CCCC2`, the Potency was “inactive”.
For `O=S(=O)(/C=C/c1ccccc1)NCc1nc2ccccc2s1`, the Potency was inconclusive: 39.8 µM [inhibitor, partial curve, poor fit].
With `Cc1cc(C)cc(NC(=O)c2cc(S(=O)(=O)NCc3ccco3)ccc2F)c1` the Potency was inconclusive: 70.8 µM [inhibitor, partial curve, poor fit].
For `Cc1ccc([C@H]2C(C(=O)O)=CC[C@@H](c3ccc4c(c3)OCO4)N2S(=O)(=O)c2ccc(C)cc2)cc1`, the Potency was inconclusive: 141 µM [inhibitor, partial curve, poor fit].
For `CCN1CCN(S(=O)(=O)c2ccc(Cl)c(C(=O)N(C)C(c3ccccc3)c3ccccc3)c2)CC1`, the Potency was inconclusive: 7.94 µM [inhibitor, full curve, poor fit].
In the case of `CC(NC(=O)c1ccc(Br)cc1)C(=O)NC1=NCCS1` (configuration not stated), the Potency is reported as inconclusive: 50.1 µM [inhibitor, partial curve, poor fit].
In the case of `NC(=S)N/N=C/c1ccc([N+](=O)[O-])s1`, the Potency is reported as inconclusive: 31.6 µM [inhibitor, partial curve, poor fit].
In the case of `O=C(O)C12CC3C4C5CC(C6C5C3C61)C42` (configuration not stated), the Potency is reported as “inactive”.
In the case of `CCOC(=O)C1=C(C)NC2=C(C(=O)CCC2)C1c1cn(Cc2ccc(Cl)cc2Cl)nc1-c1ccccc1` (configuration not stated), the Potency is reported as “inactive”.
In the case of `CSc1cccc(NCc2ccc([N+](=O)[O-])cc2)c1`, the Potency is reported as inconclusive: 3.98 µM [inhibitor, full curve].
For `CN(C(=O)c1ccno1)c1nnc(-c2cccnc2)s1`, the Potency was inconclusive: 2.51 µM [inhibitor, partial curve, poor fit].
With `Cc1cccc(C)c1OCC(=O)Nc1nc(-c2ccc(Br)cc2)ns1` the Potency was inconclusive: 39.8 µM [inhibitor, partial curve, poor fit].
For `CCN(CC)C(=O)[C@@H]1CCC[C@@H](NC2CCN(C)CC2)CN(C)C(=O)C1`, the Potency was “inactive”.
In the case of `O=C(NCc1ccco1)C(c1ccco1)N(Cc1cccs1)C(=O)Cn1nnc2ccccc21` (configuration not stated), the Potency is reported as inconclusive: 89.1 µM [inhibitor, partial curve, poor fit].
`CCc1n[nH]c(=S)n1/N=C/c1ccc(-c2ccc(Br)cc2)o1` was tested, and the Potency was inconclusive: 126 µM [inhibitor, single point].
In the case of `Cn1nc(C(=O)OCCOc2ccc(Br)cc2)c2ccccc2c1=O`, the Potency is reported as inconclusive: 10 µM [inhibitor, partial curve, poor fit].
`CCCCn1cnc2c1c(=O)n(CC(=O)Nc1cccc(Cl)c1)c(=O)n2CCCC` was tested, and the Potency was inconclusive: 79.4 µM [inhibitor, single point].
